Results on one molecule are retold here after article PMC3383762.

Chains of the proteins cited; added tags and fusions are not shown. Residues count along the entry.
UniProt P19022, residues 160-906: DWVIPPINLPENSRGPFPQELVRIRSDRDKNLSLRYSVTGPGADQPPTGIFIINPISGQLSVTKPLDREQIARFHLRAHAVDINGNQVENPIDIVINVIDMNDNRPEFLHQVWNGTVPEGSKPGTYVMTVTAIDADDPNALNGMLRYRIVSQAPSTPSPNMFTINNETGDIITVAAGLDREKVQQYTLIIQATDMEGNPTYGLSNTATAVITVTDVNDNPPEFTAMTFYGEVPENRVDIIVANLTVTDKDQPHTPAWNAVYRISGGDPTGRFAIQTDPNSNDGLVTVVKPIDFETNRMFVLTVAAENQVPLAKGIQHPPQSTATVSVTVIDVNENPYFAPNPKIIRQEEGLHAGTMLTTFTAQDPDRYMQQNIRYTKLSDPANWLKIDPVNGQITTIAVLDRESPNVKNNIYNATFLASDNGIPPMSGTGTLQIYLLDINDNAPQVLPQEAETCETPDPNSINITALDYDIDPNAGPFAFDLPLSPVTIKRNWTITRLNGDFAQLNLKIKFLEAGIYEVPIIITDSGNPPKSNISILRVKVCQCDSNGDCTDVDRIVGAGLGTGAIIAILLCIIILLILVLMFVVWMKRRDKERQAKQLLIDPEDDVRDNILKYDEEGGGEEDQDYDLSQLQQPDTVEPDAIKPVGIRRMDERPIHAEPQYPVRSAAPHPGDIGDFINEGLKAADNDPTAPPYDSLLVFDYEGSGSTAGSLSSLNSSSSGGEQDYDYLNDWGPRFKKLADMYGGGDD

The test addresses neural (N)-cadherin (human (endogenous in uveal melanoma cell lines)) (UniProt P19022). Nature of the test: co-IP; uveal melanoma cells; told only in the discussion and no data shown; which protein was precipitated and the conditions of the precipitation are not described.

These are yes or no findings as the source states them, for the method shown. In cells and extracts the contact can be indirect.

B1: Activated Leukocyte Cell Adhesion Molecule (ALCAM) (protein, UniProt Q13740 28-583)
chain: WYTVNSAYGDTIIIPCRLDVPQNLMFGKWKYEKPDGSPVFIAFRSSTKKSVQYDDVPEYKDRLNLSENYTLSISNARISDEKRFVCMLVTEDNVFEAPTIVKVFKQPSKPEIVSKALFLETEQLKKLGDCISEDSYPDGNITWYRNGKVLHPLEGAVVIIFKKEMDPVTQLYTMTSTLEYKTTKADIQMPFTCSVTYYGPSGQKTIHSEQAVFDIYYPTEQVTIQVLPPKNAIKEGDNITLKCLGNGNPPPEEFLFYLPGQPEGIRSSNTYTLTDVRRNATGDYKCSLIDKKSMIASTAITVHYLDLSLNPSGEVTRQIGDALPVSCTISASRNATVVWMKDNIRLRSSPSFSSLHYQDAGNYVCETALQEVEGLKKRESLTLIVEGKPQIKMTKKTDPSGLSKTIICHVEGFPKPAIQWTITGSGSVINQTEESPYINGRYYSKIIISPEENVTLTCTAENQLERTVNSLNVSAISIPEHDEADEISDENREKVNDQAKLIVGIVVGLLLAALVAGVVYWLYMKKSKTASKHVNKDLGNMEENKKLEENNHKTEA
Consider B1, for which the binding entry was “no binding”.
